Assay results taken from PMC10701521.
No constants are given. Whether binding was seen depends on the method and setting. Some results given as binding are weak or reduced against the parent protein; the word gives no strength.

Sequences of proteins named here, by UniProt entry; tags and fusion partners are left off. A change or cut given only in a name is not applied to a line headed by its entry.
UniProt P55088: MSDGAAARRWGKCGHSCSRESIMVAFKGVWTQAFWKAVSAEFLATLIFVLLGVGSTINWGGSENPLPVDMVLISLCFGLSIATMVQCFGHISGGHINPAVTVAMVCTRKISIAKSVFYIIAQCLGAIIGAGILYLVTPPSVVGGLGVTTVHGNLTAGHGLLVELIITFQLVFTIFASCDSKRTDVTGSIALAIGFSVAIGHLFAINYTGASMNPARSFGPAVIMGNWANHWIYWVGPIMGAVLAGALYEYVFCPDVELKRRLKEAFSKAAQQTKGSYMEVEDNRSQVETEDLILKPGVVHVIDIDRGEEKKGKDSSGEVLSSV

Target: Aquaporin-4 (AQP4), normal-length (unextended) protein as the only AQP4 in NoX^Hom mouse brain (mouse (endogenous in mouse brain)) (UniProt P55088)
Experiment: native gel or EMSA; Blue native PAGE (3-12% Bis-Tris, 4°C, pH 7) of brain lysates, 60 ug total protein, with 1% digitonin and 0.25% Coomassie G-250; blot with rabbit anti-AQP4 antibody; tetramer and orthogonal array particle (OAP) bands compared across genotypes, n = 3-4 mice per genotype

Aquaporin-4 (AQP4), normal-length (unextended) protein as the only AQP4 in NoX^Hom mouse brain (from UniProt P55088-1 1-323)
binding: binds
